Measurements reported in PubChem BioAssay AID1259308 (NCATS, 2017).
Shown is a random part of about 59,000 reagents tested. About 1,510 of all reagents (2.6%) count as active. 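Calls use total luciferase alone and ignore viability, so some active siRNAs may act by altering cell number.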 A number with no mark means an inactive call. Reagents against one gene are numbered here. No sequences are given here.

Test: 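Candidate targets for better recombinant protein yield in mammalian cells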 (primary screen)
System: human HEK293 embryonic kidney cells stably expressing firefly luciferase (HEK-CMV-Luc2-Hygro)
Knock-down reagent: single siRNA against human genes, 0.8 pmol siRNA per well
Time to read-out: 72 h
Measurement: 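Luciferase light (ONE-Glo) measured on one replicate plate set and viability (CellTiter-Glo) on the other, scaled to a negative control siRNA, with robust z-scores and luciferase per cell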
Scale: total luciferase, z-score and total luciferase, % of control: higher = more reporter protein produced; luciferase per cell, z-score: higher = more reporter output per viable cell; viable cells, % of control: higher = more viable cells
Active means: 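Active when the median/MAD z-score for overall luciferase is greater than 3; a gene was taken forward for validation with new siRNAs if at least two of its three siRNAs passed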
Meaning of the calls: active = raised luciferase; inactive = no rise

| gene | siRNA no. | total luciferase, z-score | total luciferase, % of control | luciferase per cell, z-score | viable cells, % of control |
| --- | --- | --- | --- | --- | --- |
| IRS2 (insulin receptor substrate 2) | 1 | 1.24 | 106 | 1.96 | 71 |
| IRS2 (insulin receptor substrate 2) | 2 | -0.274 | 76.4 | 1.28 | 61 |
| IRS2 (insulin receptor substrate 2) | 3 | -0.799 | 66 | -0.371 | 81.3 |
| SOS2 (SOS Ras/Rho guanine nucleotide exchange factor 2) | 1 | 0.474 | 91.3 | -0.394 | 113 |
| SOS2 (SOS Ras/Rho guanine nucleotide exchange factor 2) | 2 | 0.385 | 89.5 | -0.000435 | 100 |
| SOS2 (SOS Ras/Rho guanine nucleotide exchange factor 2) | 3 | 1.48 | 111 | 0.439 | 111 |
| PTPN3 (protein tyrosine phosphatase non-receptor type 3) | 1 | -0.192 | 78.1 | -0.244 | 93 |
| PTPN3 (protein tyrosine phosphatase non-receptor type 3) | 2 | 0.803 | 97.9 | 0.318 | 101 |
| PTPN3 (protein tyrosine phosphatase non-receptor type 3) | 3 | 0.0176 | 82.2 | -0.285 | 99.1 |
| GABRA3 (gamma-aminobutyric acid type A receptor subunit alpha3) | 1 | 0.443 | 90.7 | 0.499 | 88.9 |
| GABRA3 (gamma-aminobutyric acid type A receptor subunit alpha3) | 2 | 2.26 | 127 | 2.1 | 81.5 |
| GABRA3 (gamma-aminobutyric acid type A receptor subunit alpha3) | 3 | -0.661 | 68.7 | -1.33 | 109 |
| GLDC (glycine decarboxylase) | 1 | 0.231 | 86.5 | -0.0121 | 96.9 |
| GLDC (glycine decarboxylase) | 2 | -0.705 | 67.9 | -0.507 | 86.7 |
| GLDC (glycine decarboxylase) | 3 | 0.0301 | 82.5 | -0.317 | 100 |
| ATP5MF (ATP synthase membrane subunit f) | 1 | 0.0905 | 83.7 | 0.143 | 90 |
| ATP5MF (ATP synthase membrane subunit f) | 2 | -0.406 | 73.8 | 0.000276 | 82.5 |
| ATP5MF (ATP synthase membrane subunit f) | 3 | 1.3 | 108 | 1.3 | 85.5 |
| PER2 (period circadian regulator 2) | 1 | 0.0434 | 82.8 | -0.36 | 102 |
| PER2 (period circadian regulator 2) | 2 | -0.0355 | 81.2 | 0.346 | 82.8 |
| PER2 (period circadian regulator 2) | 3 | 3.29 (active) | 147 | 2.05 | 96 |
| FAM9B (family with sequence similarity 9 member B) | 1 | 0.798 | 97.8 | 0.353 | 99.5 |
| FAM9B (family with sequence similarity 9 member B) | 2 | 2.66 | 135 | 1.91 | 91 |
| FAM9B (family with sequence similarity 9 member B) | 3 | 0.808 | 98 | 1.44 | 75 |
